# From the supplement of paper PMC4604168 (melanoma cell lines)
# The list shows a part of the results. Repeats are few or missing, and single values can be far off.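 The apoptosis fraction was the count of cleaved-PARP antibody-stained nuclei relative to all DNA-stained nuclei, imaged in 1,536-well plates. Screening doses were set so most cells survived, and baseline and induced cleaved-PARP levels vary greatly across cell lines.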
# Tests used:
# Assay in all cases: cleaved PARP positive nuclei fraction relative to DMSO control; melanoma cells; higher = more apoptosis
# Conditions in all cases: library dose: low library concentration; 72 h
# 501Mel = tested on: 501Mel
# A101D = tested on: A101D
# A2058 = tested on: A2058
# C32 = tested on: C32
# CBRC008 = tested on: CBRC008 (line from a melanoma biopsy)
# CBRC014 = tested on: CBRC014 (line from a melanoma biopsy)
# CBRC016 = tested on: CBRC016 (line from a melanoma biopsy)
# CBRC017 = tested on: CBRC017 (line from a melanoma biopsy)
# COLO792 = tested on: COLO792
# COLO800 = tested on: COLO800
# COLO829 = tested on: COLO829
# G361 = tested on: G361
# IPC-298 = tested on: IPC-298
# IST-MEL1 = tested on: IST-MEL1
# LB2518-MEL = tested on: LB2518-MEL
# LOXIMVI = tested on: LOXIMVI
Compound,cleaved PARP positive nuclei fraction (501Mel) [%],cleaved PARP positive nuclei fraction (A101D) [%],cleaved PARP positive nuclei fraction (A2058) [%],cleaved PARP positive nuclei fraction (C32) [%],cleaved PARP positive nuclei fraction (CBRC008) [%],cleaved PARP positive nuclei fraction (CBRC014) [%],cleaved PARP positive nuclei fraction (CBRC016) [%],cleaved PARP positive nuclei fraction (CBRC017) [%],cleaved PARP positive nuclei fraction (COLO792) [%],cleaved PARP positive nuclei fraction (COLO800) [%],cleaved PARP positive nuclei fraction (COLO829) [%],cleaved PARP positive nuclei fraction (G361) [%],cleaved PARP positive nuclei fraction (IPC-298) [%],cleaved PARP positive nuclei fraction (IST-MEL1) [%],cleaved PARP positive nuclei fraction (LB2518-MEL) [%],cleaved PARP positive nuclei fraction (LOXIMVI) [%]
"Clc1ccc(Nc2nnc(Cc3ccncc3)c3ccccc23)cc1 [vatalanib] + COc1cc2ncnc(Nc3ccc(Oc4ccccc4)cc3)c2cc1OC [SrcI1] (first compound 2 µM, partner dose 2 µM)",88.6,155,15.2,83.4,60.7,96.8,49.1,107,125,55.3,68,128,43.2,70.6,71.9,13.2
"C=CCNC1=C2C[C@@H](C)C[C@H](OC)[C@H](O)[C@@H](C)/C=C(\C)[C@H](OC(N)=O)[C@@H](OC)/C=C\C=C(/C)C(=O)NC(=CC1=O)C2=O [Tanespimycin] + CC(C)CCN1c2nc(Nc3cc(F)c(O)c(F)c3)ncc2N(C)C(=O)C1C [BID1870] (first compound 0.002 µM, partner dose 0.2 µM)",80.6,37.5,15.3,66,166,123,108,80.3,76.6,509,32.8,118,206,114,34.8,129
"OCc1c[nH]c2ccccc12 [Indole-3-carbinol] + Cn1cc(/C=C2\C(=O)Nc3cccnc32)c2ccccc21 [GW441756] (first compound 0.8 µM, partner dose 0.4 µM)",52.7,55.4,72.7,86,28.9,83,65.7,88.1,115,105,88.4,97.4,46,109,73.9,66.9
"OCc1c[nH]c2ccccc12 [Indole-3-carbinol] + COc1ccc2c(c1)CCC1C2CCC2(C)C(NCCCCCCN3C(=O)C=CC3=O)CCC12 [U73122] (first compound 0.8 µM, partner dose 0.4 µM)",40.5,9.46,105,40.4,122,94.5,79.5,97.5,99.7,21.6,116,107,156,66,32.8,73.5
"Clc1ccc(Nc2nnc(Cc3ccncc3)c3ccccc23)cc1 [vatalanib] + COc1cc(N2CCC(N3CCN(C)CC3)CC2)ccc1Nc1ncc(Cl)c(Nc2ccccc2S(=O)(=O)C(C)C)n1 [NVP-TAE684] (first compound 2 µM, partner dose 0.08 µM)",91.6,322,287,97,160,220,104,90.8,120,40,139,66.9,55.7,179,72,282
"CC(=O)c1c(C)c2cnc(Nc3ccc(N4CCNCC4)cn3)nc2n(C2CCCC2)c1=O [palbociclib] + CC(C)CCN1c2nc(Nc3cc(F)c(O)c(F)c3)ncc2N(C)C(=O)C1C [BID1870] (first compound 0.04 µM, partner dose 0.2 µM)",103,12.9,91.8,154,565,247,56.2,81.1,262,58.1,60.3,63.9,104,95.2,46.1,68.9
"Clc1ccc(Nc2nnc(Cc3ccncc3)c3ccccc23)cc1 [vatalanib] + O=C(O)C(=O)Nc1sc2c(c1C(=O)O)CCNC2 [TCS401] (first compound 2 µM, partner dose 1.66667 µM)",95.1,36.8,224,119,81.6,92.6,73.9,81.9,63.2,48.8,99.7,120,81.1,28.6,76.3,130
"C=CCNC1=C2C[C@@H](C)C[C@H](OC)[C@H](O)[C@@H](C)/C=C(\C)[C@H](OC(N)=O)[C@@H](OC)/C=C\C=C(/C)C(=O)NC(=CC1=O)C2=O [Tanespimycin] + O=c1cc(-c2cccc3c2Sc2ccccc2S3)oc(N2CCOCC2)c1 [KU55933] (first compound 0.002 µM, partner dose 1 µM)",57.7,14.7,62.7,126,248,130,77.8,177,29.2,152,76.4,173,52.1,213,58.4,151
"Clc1ccc(Nc2nnc(Cc3ccncc3)c3ccccc23)cc1 [vatalanib] + Cn1cc(/C=C2\C(=O)Nc3cccnc32)c2ccccc21 [GW441756] (first compound 2 µM, partner dose 0.4 µM)",95.2,149,51.4,66.8,163,196,115,102,181,72.3,84.6,209,45.3,122,213,95.1
"C=CCNC1=C2C[C@@H](C)C[C@H](OC)[C@H](O)[C@@H](C)/C=C(\C)[C@H](OC(N)=O)[C@@H](OC)/C=C\C=C(/C)C(=O)NC(=CC1=O)C2=O [Tanespimycin] + O=C1NC(=O)/C(=C/c2ccc(-c3ccc(F)cc3O)o2)S1 [AS252424] (first compound 0.002 µM, partner dose 1 µM)",85.9,13.9,52.9,328,153,96.2,21.4,84.4,132,140,80.2,102,91.3,98,70.9,151
"OCc1c[nH]c2ccccc12 [Indole-3-carbinol] + c1cc(-c2cnn3cc(-c4ccc(OCCN5CCCCC5)cc4)cnc23)ccn1 [Dorsomorphin] (first compound 0.8 µM, partner dose 0.4 µM)",96.8,23.8,203,99.4,72.2,120,71.1,81.7,94.7,130,98.4,107,58.4,148,134,48.7
"Clc1ccc(Nc2nnc(Cc3ccncc3)c3ccccc23)cc1 [vatalanib] + N#Cc1c(O)c2c(-c3ccc(-c4ccccc4O)cc3)csc2[nH]c1=O [A769662] (first compound 2 µM, partner dose 2 µM)",126,25.2,136,80.1,95.4,108,60.9,86.4,76.3,104,40.1,91.6,96.3,189,49.5,28.9
"C=CCNC1=C2C[C@@H](C)C[C@H](OC)[C@H](O)[C@@H](C)/C=C(\C)[C@H](OC(N)=O)[C@@H](OC)/C=C\C=C(/C)C(=O)NC(=CC1=O)C2=O [Tanespimycin] + O=S(=O)(c1ccccc1)N(CC(F)(F)F)c1ccc(C(O)(C(F)(F)F)C(F)(F)F)cc1 [T0901317] (first compound 0.002 µM, partner dose 1.4 µM)",185,75.5,98.2,101,332,114,34,141,68.3,41.7,119,90.9,146,28.1,84.9,231
"CC(=O)c1c(C)c2cnc(Nc3ccc(N4CCNCC4)cn3)nc2n(C2CCCC2)c1=O [palbociclib] + CCCCCCCCCCCC1=C(O)C(=O)C=C(O)C1=O [Embelin] (first compound 0.04 µM, partner dose 1.2 µM)",232,43,24.9,145,63.7,127,44.6,140,35.1,56.2,53.4,29.2,150,101,111,83.1
"C=CCNC1=C2C[C@@H](C)C[C@H](OC)[C@H](O)[C@@H](C)/C=C(\C)[C@H](OC(N)=O)[C@@H](OC)/C=C\C=C(/C)C(=O)NC(=CC1=O)C2=O [Tanespimycin] + COc1cc2ncnc(Nc3ccc(Oc4ccccc4)cc3)c2cc1OC [SrcI1] (first compound 0.002 µM, partner dose 2 µM)",53,35.7,36.9,29.5,265,92.3,90.7,95.2,67.4,47.4,52.8,74.7,145,217,57,274
"CC(=O)c1c(C)c2cnc(Nc3ccc(N4CCNCC4)cn3)nc2n(C2CCCC2)c1=O [palbociclib] + Cn1cc(/C=C2\C(=O)Nc3cccnc32)c2ccccc21 [GW441756] (first compound 0.04 µM, partner dose 0.4 µM)",60,33.9,69.6,151,160,131,76.6,160,163,133,64.1,93,208,53.5,174,466
"Clc1ccc(Nc2nnc(Cc3ccncc3)c3ccccc23)cc1 [vatalanib] + CCc1ccc(CCOc2ccc(CC3SC(=O)NC3=O)cc2)nc1 [pioglitazone] (first compound 2 µM, partner dose 2 µM)",65.4,44,31.6,260,129,170,34.9,169,60.5,87.4,102,139,106,82.5,73.8,164
"Clc1ccc(Nc2nnc(Cc3ccncc3)c3ccccc23)cc1 [vatalanib] + Oc1nc(-c2ccc(C(F)(F)F)cc2)nc2c1CSCC2 [XAV939] (first compound 2 µM, partner dose 2 µM)",80.9,113,62.3,153,78.7,92.2,49.2,86.6,139,95.3,102,113,41.3,150,181,24.7

# Nothing new here: an excerpt of the list.
Compound,cleaved PARP positive nuclei fraction (501Mel) [%],cleaved PARP positive nuclei fraction (A101D) [%],cleaved PARP positive nuclei fraction (A2058) [%],cleaved PARP positive nuclei fraction (C32) [%],cleaved PARP positive nuclei fraction (CBRC008) [%],cleaved PARP positive nuclei fraction (CBRC014) [%],cleaved PARP positive nuclei fraction (CBRC016) [%],cleaved PARP positive nuclei fraction (CBRC017) [%],cleaved PARP positive nuclei fraction (COLO792) [%],cleaved PARP positive nuclei fraction (COLO800) [%],cleaved PARP positive nuclei fraction (COLO829) [%],cleaved PARP positive nuclei fraction (G361) [%],cleaved PARP positive nuclei fraction (IPC-298) [%],cleaved PARP positive nuclei fraction (IST-MEL1) [%],cleaved PARP positive nuclei fraction (LB2518-MEL) [%],cleaved PARP positive nuclei fraction (LOXIMVI) [%]
"CC(=O)c1c(C)c2cnc(Nc3ccc(N4CCNCC4)cn3)nc2n(C2CCCC2)c1=O [palbociclib] + CCCCCCCCCCCC1=C(O)C(=O)C=C(O)C1=O [Embelin] (first compound 0.04 µM, partner dose 1.2 µM)",232,43,24.9,145,63.7,127,44.6,140,35.1,56.2,53.4,29.2,150,101,111,83.1
"C=CCNC1=C2C[C@@H](C)C[C@H](OC)[C@H](O)[C@@H](C)/C=C(\C)[C@H](OC(N)=O)[C@@H](OC)/C=C\C=C(/C)C(=O)NC(=CC1=O)C2=O [Tanespimycin] + COc1cc2ncnc(Nc3ccc(Oc4ccccc4)cc3)c2cc1OC [SrcI1] (first compound 0.002 µM, partner dose 2 µM)",53,35.7,36.9,29.5,265,92.3,90.7,95.2,67.4,47.4,52.8,74.7,145,217,57,274
